In the assay the test system is H1299 cells. The experiment in a line: CCK-8 cell viability, H1299. The format is cell-based. As to conditions: Homo sapiens, NCI-H1299, H1299 (wild-type), read-out: Cellular Antiproliferative Activity (IC50, μM) H1299. As for the experimental part: All the cell viability assays were performed according to the CCK-8 method. The cells were seeded at a density of 5 to 8 × 10^4 cells/mL in 96-well plates in growth medium supplemented with 10% serum at 37 °C with 5% CO2 for one day. After 12 h of incubation, 100 μL of medium was removed, and 100 μL of sample solution with different concentrations of inhibitor was added and then the cells were incubated for 48 or 72 h. Subsequently, 10 μL of CCK-8 reagent (Biotool Company, Kirchberg, Switzerland, 5.0 mg/mL) dissolved in phosphate-buffered saline (PBS) was added and the cells were incubated for another 4 h. The absorbance was read at 450 nm with a microplate reader (Thermo Fisher Scientific, Waltham, MA, USA). The data were calculated using GraphPad Prim version 5.0.

Turning to `COc1cc2ncnc(Nc3ccc(F)c(Cl)c3)c2cc1OCCCN1CCOCC1` [Gefitinib, gefitinib], the IC50 came out at 10.8 µM.

The values are drawn from paper PMC6274483, “Novel Selective and Potent EGFR Inhibitor that Overcomes T790M-Mediated Resistance in Non-Small Cell Lung Cancer” (Molecules, 2016).
